Paper PMC12486301 (The Journal of pharmacology and experimental therapeutics, 2025)

Legend:
ENT2 = target: T1, ENT2 (Homo sapiens, UniProt Q14542); assay: Inhibition of [3H]uridine uptake into HeLa FlpIn cells overexpressing hENT2; assay type: cell-based
T1 sequence (Q14542 1-456): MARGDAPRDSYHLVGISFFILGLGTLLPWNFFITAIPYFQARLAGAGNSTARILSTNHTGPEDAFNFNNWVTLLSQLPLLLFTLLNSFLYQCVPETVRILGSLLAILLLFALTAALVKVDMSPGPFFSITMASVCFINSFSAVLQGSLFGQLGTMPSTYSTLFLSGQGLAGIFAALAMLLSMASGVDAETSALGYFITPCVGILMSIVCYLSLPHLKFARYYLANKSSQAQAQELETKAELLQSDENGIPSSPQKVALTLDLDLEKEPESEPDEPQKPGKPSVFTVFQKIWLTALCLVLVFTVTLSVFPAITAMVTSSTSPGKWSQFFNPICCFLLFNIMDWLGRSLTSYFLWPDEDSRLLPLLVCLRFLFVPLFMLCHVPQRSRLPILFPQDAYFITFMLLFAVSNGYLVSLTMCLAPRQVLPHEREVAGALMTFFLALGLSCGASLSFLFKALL

ENT1 = target: T2, ENT1 (Homo sapiens, UniProt Q99808); assay: Inhibition of [3H]uridine uptake into WT HeLa; assay type: cell-based
T2 sequence (Q99808 1-456): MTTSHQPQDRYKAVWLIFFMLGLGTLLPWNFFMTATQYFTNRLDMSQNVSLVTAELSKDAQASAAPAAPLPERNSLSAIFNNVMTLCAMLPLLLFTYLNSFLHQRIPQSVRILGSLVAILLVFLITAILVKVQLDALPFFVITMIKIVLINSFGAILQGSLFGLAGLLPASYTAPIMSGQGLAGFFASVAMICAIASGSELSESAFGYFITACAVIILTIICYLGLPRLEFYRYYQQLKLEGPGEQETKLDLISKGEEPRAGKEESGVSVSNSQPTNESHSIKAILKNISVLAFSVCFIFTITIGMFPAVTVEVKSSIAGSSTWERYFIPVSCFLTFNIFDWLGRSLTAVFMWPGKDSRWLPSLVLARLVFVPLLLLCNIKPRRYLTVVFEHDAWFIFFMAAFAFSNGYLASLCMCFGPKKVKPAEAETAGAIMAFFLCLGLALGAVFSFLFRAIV

| IC50 (ENT2) | inhibition at 20 µM (ENT2; HeLa, read-out: ENT2 % Inhibition (20μM)) | IC50 (ENT1) | inhibition at 20 µM (ENT1; HeLa, read-out: ENT1 % Inhibition (20μM)) | SMILES |
| --- | --- | --- | --- | --- |
| 419 ± 128 µM | 7.6% | ≥ 1500 µM | 23.6% | CN(C)CCN(Cc1cccs1)c1ccccn1 [methapyrilene] |
| – | – | 5.42 ± 0.2 µM | – | O=c1[nH]c2ccccc2n1CCCN1CCC(n2c(=O)[nH]c3cc(Cl)ccc32)CC1 [domperidone] |
